# The supplement of paper PMC10735217
# Where a name gives a salt, the structure may show the parent alone. The list shows a part of the results. Single values are uncertain here, since repeats match poorly.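 Human kidney-derived cells stably carry a construct in which eight TEAD-binding elements drive luciferase, measured by luminescence in a drug-repurposing library screen. A hit is any compound whose signal exceeds the plate mean by more than five robust Z scores.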
# Test system: HEK293A TEAD-LUC reporter
# Test: TEAD-luciferase reporter activity (YAP activation), robust Z score vs plate; higher = stronger YAP/TEAD activation
# Conditions: 24 h
Compound,TEAD-luciferase reporter activity (compound concentration: 200 nM),TEAD-luciferase reporter activity (compound concentration: 2 uM),TEAD-luciferase reporter activity (compound concentration: 10 uM)
C=CC(=O)N1CC[C@H](n2nc(C#Cc3cc(OC)cc(OC)c3)c3c(N)ncnc32)C1,inactive: -1.23,inactive: -0.459,inactive: 0.361
NC(=O)[C@H]1CCN(c2ncnc(N)c2F)C[C@@H]1N1CCC[C@@H](Nc2cc(Cl)cc(C(F)(F)F)c2)C1=O,inactive: 0.0361,inactive: 0.254,inactive: 0.819
COCC(=O)NC1CCN(c2nc3ncccc3o2)CC1,inactive: 1.92,,inactive: -1.56
O=C(/C=C/c1ccc(Cl)cc1Cl)NC[C@H]1CN(c2ccc(N3CCOCC3)c(F)c2)C(=O)O1,inactive: -0.667,inactive: -2.13,inactive: 2.73
CCc1ccc(CCOc2ccc(CC3SC(=O)NC3=O)cc2)nc1 (stereo not given),inactive: -0.662,,inactive: 3.95
CN1CCN([C@H]2C[C@H](c3ccccc3)c3ccccc32)CC1,inactive: -0.847,inactive: -2.18,inactive: 0.589
COc1cncc(/C=C/CCNC(C)(C)C)c1,inactive: 1.94,inactive: -0.892,inactive: 0.486
CCCCCCCCCCCC(=O)O [Lauric acid],inactive: -0.776,inactive: -1.56,inactive: 1.28
Cc1nc2c(cc1-c1ccncc1)=NC(=O)N=2,inactive: -0.0365,inactive: -1.18,inactive: 0.317
COc1ccc(/C=N/NC2=NCCN2)cc1,inactive: -1.55,inactive: -1.3,inactive: 2.02
[O]=[Bi][O][Bi]=[O],inactive: 4.15,,inactive: -0.209
CCOc1ccc2c(c1)Sc1cccc(OC)c1C2=C1CCN(C)CC1,inactive: -0.956,inactive: 0.151,inactive: 0.256
Cc1ccc(O[C@H]2O[C@H](CCP(=O)(O)O)[C@@H](O)[C@H](O)[C@@H]2O)c(C)c1,inactive: 2.73,inactive: 1.94,inactive: -1.04
Nc1nc(I)nc2c1ncn2[C@@H]1O[C@H](CO)[C@@H](O)[C@H]1O,inactive: -0.796,inactive: 0.925,inactive: -1.23
O=C(Nc1ccc(N2CCCCC2)cc1)C(=O)c1c(-c2ccccc2)cc2ccccn12,inactive: -0.347,inactive: -0.718,inactive: 2.99
c1nc(NC2CCCC2)c2nc[nH]c2n1,inactive: -0.854,inactive: -0.912,inactive: 1.09
Cc1[nH]cnc1CSCCNc1nc(=O)c(Cc2ccc3c(c2)OCO3)c[nH]1 [oxmetidine],inactive: -0.101,inactive: 0.546,inactive: -0.846
COC1/C=C/OC2(C)Oc3c(C)c(O)c4c(O)c(c(/C=N/N=C/N5CCCCC5)c(O)c4c3C2=O)NC(=O)/C(C)=C\C=C\C(C)C(O)C(C)C(O)C(C)C(OC(C)=O)C1C (stereo not given),inactive: -0.395,inactive: -0.77,inactive: 4.86
CCC12CCCN3CCc4c(n(c5ccccc45)C(=O)C1)C32 (stereo not given) [vinburnine],inactive: -1.17,inactive: 4.05,inactive: 0.586
CCOC(=O)/C=C1\SC(N2CCCCC2)C(=O)N1C (stereo not given) [dexetozoline],inactive: -1.37,inactive: 3.03,inactive: 4.46

# Whole records from above. Values in the order: TEAD-luciferase reporter activity (compound concentration: 200 nM)	TEAD-luciferase reporter activity (compound concentration: 2 uM)	TEAD-luciferase reporter activity (compound concentration: 10 uM)
# Cc1ccc(O[C@H]2O[C@H](CCP(=O)(O)O)[C@@H](O)[C@H](O)[C@@H]2O)c(C)c1 is entered as inactive: 2.73	inactive: 1.94	inactive: -1.04
# COC1/C=C/OC2(C)Oc3c(C)c(O)c4c(O)c(c(/C=N/N=C/N5CCCCC5)c(O)c4c3C2=O)NC(=O)/C(C)=C\C=C\C(C)C(O)C(C)C(O)C(C)C(OC(C)=O)C1C (stereo not given) is entered as inactive: -0.395	inactive: -0.77	inactive: 4.86
# Nc1nc(I)nc2c1ncn2[C@@H]1O[C@H](CO)[C@@H](O)[C@H]1O is entered as inactive: -0.796	inactive: 0.925	inactive: -1.23

# Continued.

Compound,TEAD-luciferase reporter activity (compound concentration: 200 nM),TEAD-luciferase reporter activity (compound concentration: 2 uM),TEAD-luciferase reporter activity (compound concentration: 10 uM)
CN(C(=O)CN1C(=O)COc2cc(Cl)c(Cl)cc21)[C@@H](CN1CCOCC1)c1ccc(-c2ccc(C(=O)O)cc2)cc1,inactive: -0.65,inactive: -0.264,inactive: 0.295
Cc1ccc(Nc2nccc(N(C)c3ccc4c(C)n(C)nc4c3)n2)cc1S(N)(=O)=O [pazopanib hydrochloride (ophthalmic)],active: 7.72,inactive: -1.55,inactive: -1.59
COCCO[C@@H]1c2ccn3c(C)c(C)nc3c2N[C@H](c2ccccc2)[C@H]1O [soraprazan],inactive: -0.201,inactive: 0.0645,inactive: 3.91
O=C1NC(=O)C2(CCOc3ccc(F)cc32)N1 (stereo not given) [Sorbinil],inactive: -0.39,inactive: -0.234,inactive: -0.272
CS(=O)(=O)Nc1ccc(F)c(C(O)CN)c1 (stereo not given) [Garomefrine hydrochloride],inactive: -0.0634,inactive: 0.81,inactive: -0.122
CN1CCN(CCCN2c3ccccc3Sc3ccccc32)CC1,inactive: 0.0996,inactive: -0.571,inactive: -0.705
CCOC(=O)c1[nH]c2cc(OC)c(OC)cc2c1CCN1CCN(c2ccccc2)CC1,inactive: -0.83,inactive: -0.596,inactive: 0.173
CCC[C@H](N[C@H]1CCc2cc(F)cc(F)c2C1)C(=O)Nc1cn(C(C)(C)CNCC(C)(C)C)cn1,inactive: -0.534,inactive: -0.686,inactive: -0.342
"O=C(NC[C@]1(CC2CC2)CC[C@H](S(=O)(=O)CC2CC2)CC1)c1ccc(Cl)cc1Cl [GlyT1 inhibitor, Merck &amp]",inactive: -1.25,,inactive: -0.616
"O=C(NC[C@]1(CC2CC2)CC[C@H](S(=O)(=O)CC2CC2)CC1)c1ccc(Cl)cc1Cl [GlyT1 inhibitor, Merck &amp_:_ Co]",,inactive: 0.737,
CN1C(=O)C2(CCCN(C(=O)c3ccc(Cl)cc3)C2)Cc2ccccc21 (stereo not given),inactive: 0.0662,,inactive: 0.513
O=C(c1cc(Br)cn2ccnc12)N1CCC(N2CCCCC2)CC1,inactive: -0.143,,inactive: 1.63
Cc1nccn1CC1CCc2c(c3ccccc3n2C)C1=O [(R)-ondansetron],,inactive: -0.829,
Cc1nccn1CC1CCc2c(c3ccccc3n2C)C1=O (stereo not given),active: 5.5,,inactive: 2.05
N#Cc1c[nH]c2c(C(=O)N3CCN(CCc4ccc(F)cc4)CC3)cccc12 [pruvanserin],inactive: -1.96,inactive: 0.477,inactive: -0.659
N/C(=N/c1ccccc1)c1ccc(N)cc1,inactive: -1.69,inactive: -0.798,inactive: -0.459
CC(=O)NC[C@H]1CN(c2ccc(N3CCSCC3)c(F)c2)C(=O)O1 [sutezolid],inactive: 0.332,inactive: 0.341,inactive: 0.866
FC(F)(F)c1ccc2c(c1)N(CCCN1CCN(CCC3OCCCO3)CC1)c1ccccc1S2,inactive: 0.109,inactive: 1.24,inactive: 1.11
COCCOc1cnc(NS(=O)(=O)c2ccccc2)nc1 [Glymidine],inactive: -1.16,inactive: 0.805,inactive: -0.045
NC(=O)N(O)CC1=Cc2cc(Oc3ccccc3)ccc2OC1,inactive: -3.31,inactive: -0.312,inactive: 3.45

Compound,TEAD-luciferase reporter activity (compound concentration: 200 nM),TEAD-luciferase reporter activity (compound concentration: 2 uM),TEAD-luciferase reporter activity (compound concentration: 10 uM)
NC(=O)N1CC(Oc2cccc(C(F)(F)F)c2)C1 [Dezinamide],inactive: 0.39,inactive: 0.256,inactive: -0.724
CCCN1CCCCC12Cc1ccccc1CN(C(C)=O)C2 (stereo not given),inactive: -0.423,,inactive: 0.0826
C[C@@H]1CCC[C@H](C)N1NC(=O)c1ccc(Cl)c(S(N)(=O)=O)c1 [Clopamide],inactive: -0.686,inactive: -1.34,inactive: 2.16
COc1ccccc1CC(=N)N1C[C@@H]2C(=O)CCC(c3ccccc3)(c3ccccc3)[C@@H]2C1,inactive: 0.0662,inactive: -1.36,inactive: 2.76
COc1ccc(C(=O)N2Cc3ccccc3CC23CCCN(C(=O)CCCN)C3)cc1 (stereo not given),inactive: 2.65,,inactive: 0.315
O=[N+]([O-])c1nccn1COC(CO)CO,inactive: -0.527,inactive: 0.145,active: 11.3
CCCCCCCCCC1(C)OCC(COC(N)=O)O1 (stereo not given),inactive: 2.02,inactive: 0.136,inactive: 0.199
CC(=N)NCCS(=O)(=O)C[C@H](N)C(=O)O,inactive: 1.85,inactive: -1.61,inactive: 3.35
CCC(CC)Nc1cc(C)nc(Oc2c(C)cc(C)cc2C)c1C,inactive: -0.262,inactive: 0.769,inactive: 0.036
OC[C@H]1O[C@@H](n2cnc3c(O)ncnc32)[C@@H](O)[C@@H]1O,inactive: 0.0495,inactive: -1.57,inactive: -0.341
[OH][Ca][OH],inactive: -0.251,inactive: -1.04,inactive: -0.438
CN1C[C@@H]2C[C@H]1CN2c1cc2c(cc1F)c(=O)c(C(=O)O)cn2C1CC1 [Danofloxacin mesylate],,inactive: 1.02,
CN1C[C@@H]2C[C@H]1CN2c1cc2c(cc1F)c(=O)c(C(=O)O)cn2C1CC1,inactive: -1.37,,inactive: 1.52
CCCCCCOC(=O)/N=C(/N)c1ccc(NCc2nc3cc(C(=O)N(CCC(=O)OCC)c4ccccn4)ccc3n2C)cc1 [prodrug Dabigatran etexilate mesilate],inactive: -0.913,,inactive: 4.52
CCCCCCOC(=O)/N=C(/N)c1ccc(NCc2nc3cc(C(=O)N(CCC(=O)OCC)c4ccccn4)ccc3n2C)cc1 [Dabigatran etexilate mesilate],,inactive: -1.17,
O=C(O)c1ccc2c(C3CCCCC3)c3n(c2c1)CCOc1cc(OCc2ccccc2)ccc1-3,inactive: -0.0137,inactive: -1.28,active: 5.85
CNc1ccc(N2CCN(C(=O)[C@]3(C)CCc4c(C)c(O)c(C)c(C)c4O3)CC2)cc1,inactive: -1.31,inactive: 1.6,inactive: -0.647
C#Cc1cccc(Nc2ncnc3cc4c(cc23)OCCOCCOCCO4)c1 [Icotinib hydrochloride],,inactive: 0.269,
C#Cc1cccc(Nc2ncnc3cc4c(cc23)OCCOCCOCCO4)c1 [Icotinib],inactive: 0.598,,inactive: -0.725
